Hit rate of the full screen: of about 310,000 compounds, about 17,000 (5.5%) were called active. The inconclusive results got no clear call from the source; some entries with a clear call stand among them for comparison. Calls come from the whole dose curve; as a rule, active = well fitted inhibition curve with a large enough effect; inconclusive = small, poorly fitted or top-dose-only effect, or effect the other way; inactive = no such curve, though single readings can be large or run the other way. Potencies of inconclusive entries are doubtful fits and often do not repeat.
These compounds were tested against Nuclear receptor ROR-gamma (Mus musculus) (UniProt P51450) (assay: qHTS for inhibitors of ROR gamma transcriptional activity). Conditions: Drosophila S2 Gal4-RORgamma UAS-luciferase reporter, 20 h; activity change, negative = inhibition: at 53.6 µM (top of the series).
Method in brief: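 Compounds are pin-transferred onto Drosophila Schneider cells expressing a copper-inducible Gal4–ROR gamma transactivation domain fusion. After 1 hr, copper sulfate is added to 700 uM final; luciferase is read 20 hr later.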
% is set by controls: 0 for no effect and ±100 for the full control effect; potency is the fitted concentration of half-maximal effect.
Note: nearly all actives have a fitted effect of over 60% in size.

Chains of the proteins cited; added tags and fusions are not shown. Lines headed by an entry give the natural chain unless they say otherwise; changes in a name come on top.
UniProt P51450: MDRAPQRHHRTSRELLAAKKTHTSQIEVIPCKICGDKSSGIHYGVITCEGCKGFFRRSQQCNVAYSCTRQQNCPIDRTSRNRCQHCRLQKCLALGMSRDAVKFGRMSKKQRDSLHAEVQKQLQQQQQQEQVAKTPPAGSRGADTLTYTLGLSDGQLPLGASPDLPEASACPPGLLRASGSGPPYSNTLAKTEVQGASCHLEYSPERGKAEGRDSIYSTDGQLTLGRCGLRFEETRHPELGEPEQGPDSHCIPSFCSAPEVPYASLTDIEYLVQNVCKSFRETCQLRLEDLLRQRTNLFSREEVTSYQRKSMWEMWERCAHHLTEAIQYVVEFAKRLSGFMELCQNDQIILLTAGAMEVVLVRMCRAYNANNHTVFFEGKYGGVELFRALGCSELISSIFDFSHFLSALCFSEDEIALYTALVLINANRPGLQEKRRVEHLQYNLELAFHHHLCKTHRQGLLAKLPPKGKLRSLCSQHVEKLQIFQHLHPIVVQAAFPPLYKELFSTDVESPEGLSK

How did the Potency turn out when Cc1cc(C)n(CCC(=O)N/N=C/c2ccc(Br)c([N+](=O)[O-])c2)n1 was run?
Its Potency is “inactive”.

How did the Potency turn out when O=C(Nc1nc2ccccc2[nH]1)c1ccccc1F was run?
Its Potency is active: 0.708 µM.

For Cc1ccccc1Cn1ccc(NC(=O)c2nn3cccnc3c2Cl)n1, which Potency is on record?
The Potency was “inactive”.

For Cc1ccc(-c2cnc(N)n2C)cc1C, which Potency is on record?
The Potency was active: 20 µM.

How did the Potency turn out when COc1ccc(CNC(=O)CN2C(=O)NC(C)(c3ccc(C(C)(C)C)cc3)C2=O)cc1 (stereo not drawn) was run?
Its Potency is inconclusive: 14.1 µM [activator, single point].

How did the Potency turn out when COc1ccc(NC(=O)C=C(C)C)cc1Cl was run?
The Potency was “inactive”.

Nc1nonc1-n1nnc(C(=O)N/N=C/c2cccnc2)c1CSC1=NCCS1 was tested. Which Potency did it give?
Its Potency is “inactive”.

How did the Potency turn out when C/C(=N\Nc1nc2ccccc2[nH]1)c1ccccn1 was run?
The Potency was active: 2.51 µM.

CN(c1cccc(NC(=O)CN(c2cccc(Cl)c2)S(=O)(=O)c2ccccc2)c1)S(C)(=O)=O was tested. Which Potency did it give?
Its Potency is inconclusive: 12.6 µM [activator, partial curve].

Which Potency does the source give for NNC(=O)c1ccc(N2CCc3ccccc32)c([N+](=O)[O-])c1 here?
The Potency was inconclusive: 20 µM [inhibitor, single point].

For O=C(Cc1c(O)c2ccccc2[nH]c1=O)NC1CCCCCCC1, which Potency is on record?
The Potency was inconclusive: 35.5 µM [activator, single point].

With Cc1cc(-n2c(C)cc(C(=S)N3CCOCC3)c2C)ccc1Br as the compound, how does the Potency read?
The Potency was active: 8.91 µM.

With CCCCCC(=O)Nc1ccc(-c2csc(C)n2)cc1 as the compound, how does the Potency read?
The Potency was inconclusive: 11.2 µM [activator, partial curve].

With O=C(COc1cccnc1[N+](=O)[O-])Nc1ccc(Cl)c(S(=O)(=O)N2CCOCC2)c1 as the compound, how does the Potency read?
The Potency was “inactive”.

Cc1ccc(C(=O)C(C)OC(=O)CCN2C(=O)C3C4C=CC(C5CC45)C3C2=O)cc1 (stereo not drawn) was tested. Which Potency did it give?
The Potency was “inactive”.

CCc1ccccc1NC(=S)NC1CC2CCC(C1)N2Cc1ccco1 (stereo not drawn) was tested. Which Potency did it give?
Its Potency is inconclusive: 7.94 µM [inhibitor, partial curve, poor fit].

Which Potency does the source give for Cc1ccc(-c2nc3c(c(=O)[nH]c(=O)n3Cc3ccccc3)n2C)o1 here?
The Potency was inconclusive: 17.8 µM [inhibitor, single point].

How did the Potency turn out when O=C(O)C[C@]1(C(=O)Nc2ccc(F)cc2)CC(/C=C/c2ccccc2)=NO1 was run?
The Potency was “inactive”.

For CC(C)C1O/C(=N/C(=O)Nc2ccc(Cl)c(Cl)c2)NC1=O (stereo not drawn), which Potency is on record?
The Potency was inconclusive: 14.1 µM [inhibitor, single point].

How did the Potency turn out when Cc1cc2c(cc1C)NC(c1c(C)n(C)n(-c3ccccc3)c1=O)C1=C(CC(C)(C)CC1=O)N2 (stereo not drawn) was run?
Its Potency is active: 12.6 µM.

Which Potency does the source give for Cc1c(C(=O)OC2CCCCC2)sc2nc[nH]c(=O)c12 here?
The Potency was inconclusive: 0.1 µM [activator, single point].

Which Potency does the source give for COc1ccc(-c2cc(C(=O)OCC(=O)NC(C)C)c3ccccc3n2)cc1 here?
Its Potency is inconclusive: 0.891 µM [activator, full curve, poor fit].

CC(C)(C)NS(=O)(=O)c1cccc(S(=O)(=O)c2cccc(S(=O)(=O)NC(C)(C)C)c2)c1 was tested. Which Potency did it give?
Its Potency is inconclusive: 14.1 µM [activator, single point].

For CCCCC(CC)C(=O)Nc1ccc(Nc2ccccc2)cc1 (stereo not drawn), which Potency is on record?
The Potency was inconclusive: 35.5 µM [activator, single point].

Which Potency does the source give for CCc1nc2ccccc2c(=O)n1NC(=O)c1c(O)c2ccccc2[nH]c1=O here?
The Potency was “inactive”.

How did the Potency turn out when CCNC(=O)CSc1nnc(-c2cc(-c3ccc(Cl)cc3)nc3ccccc23)o1 was run?
Its Potency is active: 0.199 µM.

With CC(C)Oc1ccc(C(=O)NC2CCCCC2)cc1 as the compound, how does the Potency read?
Its Potency is inconclusive: 0.282 µM [activator, full curve, poor fit].

Cc1cccc(C)c1Nc1nnc(SCc2cn3cccc(C)c3n2)s1 was tested. Which Potency did it give?
The Potency was inconclusive: 17.8 µM [activator, partial curve].

Which Potency does the source give for CN1CCN(C(=O)C2=C[C@@H](c3csc4ccccc34)C[C@@H](OCc3ccc(CO)cc3)O2)CC1 here?
Its Potency is inconclusive: 25.1 µM [inhibitor, single point].

For COc1ccc(-c2[nH]nc3c2C(c2ccoc2)C(C#N)=C(N)O3)cc1 (stereo not drawn), which Potency is on record?
Its Potency is inconclusive: 35.5 µM [activator, single point].

For Cc1ccc(-n2[nH]c(C)c(/C=C3/C=Nc4ccccc43)c2=O)cc1C, which Potency is on record?
The Potency was “inactive”.

How did the Potency turn out when COc1ccc(NC(=S)N2N=CCC2c2ccccc2)cc1 (stereo not drawn) was run?
The Potency was inconclusive: 1.78 µM [activator, partial curve, poor fit].

O=c1c2ccccc2nc2n1CCc1c-2[nH]c2ccccc12 was tested. Which Potency did it give?
The Potency was inconclusive: 35.5 µM [inhibitor, single point].

O=C(NCCN1CCOCC1)NC1(C(F)(F)F)Oc2ccccc2O1 was tested. Which Potency did it give?
Its Potency is “inactive”.

For O=C(Nc1ccc(S(=O)(=O)N2CCOCC2)cc1)c1ccc(Cl)cc1Cl, which Potency is on record?
The Potency was inconclusive: 15.8 µM [activator, partial curve].

CS(=O)(=O)N1CCc2cc(C(=O)Nc3ccc(COCC(F)(F)F)cc3)ccc21 was tested. Which Potency did it give?
Its Potency is inconclusive: 0.224 µM [inhibitor, single point].

For C/C=C\C1=C(CO)[C@H](O)[C@H]2O[C@H]2[C@H]1O, which activity change, negative = inhibition is on record?
Its activity change, negative = inhibition is inactive: 1.69% [at 10 µM].

For Cc1sc2ncnc(SCC(=O)NNC(=O)c3ccco3)c2c1C, which Potency is on record?
Its Potency is inconclusive: 7.08 µM [inhibitor, partial curve].

C#C[C@]1(OC(C)=O)CC[C@H]2[C@@H]3CCC4=C/C(=N/O)CC[C@@H]4[C@H]3CC[C@@]21CC was tested. Which Potency did it give?
The Potency was inconclusive: 5.01 µM [inhibitor, partial curve, poor fit].

With CCc1cc2c(NC3CCCC3)ncnc2s1 as the compound, how does the Potency read?
The Potency was inconclusive: 31.6 µM [inhibitor, single point].

O=S(=O)(NCc1ccccn1)c1cc(C(F)(F)F)ccc1Cl was tested. Which Potency did it give?
The Potency was active: 7.08 µM.

With CCOC(=O)c1ccc(/C=C2/C=C(c3ccccc3)N(c3ccc(Cl)c(C(=O)O)c3)C2=O)cc1 as the compound, how does the Potency read?
Its Potency is inconclusive: 2.82 µM [activator, partial curve].

Which Potency does the source give for CCOc1cccc2cc(-c3csc(NC(=O)CCC(=O)NCCCN4CCC(C)CC4)n3)c(=O)oc12 here?
Its Potency is inconclusive: 17.8 µM [inhibitor, single point].

With COc1ccc(NC(=S)Nn2cnnc2)c(OC)c1 as the compound, how does the Potency read?
The Potency was inconclusive: 22.4 µM [inhibitor, single point].

With CCSc1nc(-c2ccccc2)nc(C(Cl)Cl)n1 as the compound, how does the Potency read?
Its Potency is active: 1.26 µM.

Cc1ccc(C)c(NCC(=O)NNC(=S)Nc2ccccc2)c1 was tested. Which Potency did it give?
The Potency was inconclusive: 15.8 µM [inhibitor, partial curve, poor fit].

For COc1ccc(-n2c(Cc3cccn3C)nnc2SCC(=O)Nc2ccc(C)c(Cl)c2)cc1, which Potency is on record?
The Potency was inconclusive: 12.6 µM [activator, partial curve].

Cc1[nH]c2ccccc2c1C(=O)CN1CCC(C)CC1 was tested. Which Potency did it give?
Its Potency is “inactive”.

C=CCn1c(-c2oc3nc(-c4ccccc4)cc(-c4ccccc4)c3c2N)n[nH]c1=S was tested. Which Potency did it give?
Its Potency is inconclusive: 3.16 µM [inhibitor, partial curve].

With O=c1c2ccccc2cnn1CCOc1ccccc1 as the compound, how does the Potency read?
Its Potency is active: 4.47 µM.

Which Potency does the source give for CCc1c(C)nc2ncnn2c1Nc1ccc(C(C)=O)cc1 here?
Its Potency is inconclusive: 20 µM [activator, single point].

For Cc1cc(Nc2ccc(Cl)cc2)nc(N2CCOCC2)n1, which Potency is on record?
The Potency was “inactive”.

For CCCS/C(N)=N/N=C/c1cc(C)ccc1O, which Potency is on record?
Its Potency is active: 0.891 µM.

For Cc1nn(-c2ccccc2)nc1C(=O)NN, which Potency is on record?
The Potency was “inactive”.

Cc1cc(C)c2nc(NNC(=O)c3ccc(S(=O)(=O)N4CCc5ccccc5C4)cc3)sc2c1 was tested. Which Potency did it give?
Its Potency is active: 1.58 µM.

Which Potency does the source give for O=C1S/C(=C\c2ccc(N3CCOCC3)o2)C(=O)N1Cc1c(F)cccc1Cl here?
Its Potency is inconclusive: 35.5 µM [inhibitor, single point].

With CCOC(=O)c1c(NC(=S)Nc2ccc(Cl)cc2)sc2c1CCN(C)C2 as the compound, how does the Potency read?
The Potency was “inactive”.

With COc1ccccc1NC(=O)c1ccc(NC(=O)c2cc3c(s2)CCC3)cc1 as the compound, how does the Potency read?
Its Potency is “inactive”.

For Nn1c(SCc2ccccc2)nnc1-c1ccco1, which Potency is on record?
Its Potency is inconclusive: 35.5 µM [activator, single point].

Which Potency does the source give for CC(C)(C)c1ccc(C(=O)NCC(=O)OCc2ccc([N+](=O)[O-])cc2)cc1 here?
The Potency was inconclusive: 17.8 µM [activator, single point].

With COC(=O)Cn1cc(/C=C/[N+](=O)[O-])c2ccccc21 as the compound, how does the Potency read?
The Potency was active: 10 µM.

With CC(C)=CCC/C(C)=C/CC/C(C)=C/CC/C(C)=C/CO as the compound, how does the Potency read?
The Potency was inconclusive: 6.31 µM [inhibitor, full curve, poor fit].

How did the Potency turn out when Nn1c(SCC(=O)NC2CCCCC2)nnc1C1CC1 was run?
Its Potency is “inactive”.

Which Potency does the source give for COc1ccc(Oc2ccc(/C=C/C(=O)c3ccc(O)cc3)cc2[N+](=O)[O-])cc1 here?
Its Potency is inconclusive: 15.8 µM [inhibitor, single point].

CCN(CC)S(=O)(=O)c1ccc(/C=C/C(=O)Nc2ccc(F)cc2F)cc1 was tested. Which Potency did it give?
Its Potency is inconclusive: 11.2 µM [activator, partial curve].

COc1cc(OC)c(NC(=O)CN(C)S(=O)(=O)c2ccc(-c3ccc(=O)[nH]n3)s2)cc1Cl was tested. Which Potency did it give?
The Potency was “inactive”.

Which Potency does the source give for Cc1cc(C)nc(NC(=S)Nc2cccc(Cl)c2Cl)c1 here?
The Potency was active: 0.398 µM.

Which Potency does the source give for Cc1ccc(S(=O)(=O)Nc2c(C)nc3nc(C)[nH]n3c2=O)c(C)c1 here?
Its Potency is inconclusive: 0.112 µM [activator, full curve, poor fit].

With CCOc1ccc(OCc2ccc(C(=O)N3CCOCC3)cc2)cc1 as the compound, how does the Potency read?
The Potency was inconclusive: 6.31 µM [activator, partial curve].

Cc1ccc(/C=C(/C#N)C(=O)NC(C)c2ccccc2)o1 (stereo not drawn) was tested. Which Potency did it give?
Its Potency is inconclusive: 35.5 µM [inhibitor, single point].

Which Potency does the source give for COC(=O)c1cc(S(=O)(=O)N(C)Cc2ccco2)c[nH]1 here?
The Potency was “inactive”.

COc1ccc(OC)c(NC(=O)Nc2cccnc2)c1 was tested. Which Potency did it give?
The Potency was “inactive”.

With CCOC(=O)c1oc2ccccc2c1NC(=O)c1cccc(OC)c1 as the compound, how does the Potency read?
Its Potency is “inactive”.

— PubChem BioAssay AID2551 (National Center for Advancing Translational Sciences (NCATS), 2010)
